# Test results: the M2OR odorant receptor database
# This is a selection; strong and weak results do not stand in their true shares. Calls are pooled over several reports, among them a noisy single-well screen. The list shows a part of the results.
# Tests used:
# Conditions in all cases: stereoisomer not certain
# OR52N5 (Homo sapiens) = molecular target: T1, OR52N5 (Homo sapiens) (UniProt Q8NH56)
# T1 sequence (whole entry): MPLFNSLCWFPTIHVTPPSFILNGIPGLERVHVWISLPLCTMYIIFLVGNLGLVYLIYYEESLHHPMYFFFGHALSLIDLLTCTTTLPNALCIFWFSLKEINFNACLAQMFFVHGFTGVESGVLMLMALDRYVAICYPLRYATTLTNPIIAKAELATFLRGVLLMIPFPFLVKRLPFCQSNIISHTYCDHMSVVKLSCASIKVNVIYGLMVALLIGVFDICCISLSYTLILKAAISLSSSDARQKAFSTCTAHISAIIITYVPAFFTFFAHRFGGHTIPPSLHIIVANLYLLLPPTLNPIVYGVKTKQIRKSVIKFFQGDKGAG
# In short: (§1)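 Values were gathered from published papers (main text and supplementary material), with extra details requested from the original authors when needed, and checked for typos and inconsistencies. Each receptor–molecule pair is called responsive (active) if the original authors judged the measured signal statistically different from baseline, and non-responsive (inactive) otherwise. Assay methods varied by source, often transient mammalian cell-line luciferase assays. Recorded details include cell line, G-protein, co-transfected protein and tags.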
# OR56A1 (Homo sapiens) = molecular target: T2, OR56A1 (Homo sapiens) (UniProt Q8NGH5)
# T2 sequence (whole entry): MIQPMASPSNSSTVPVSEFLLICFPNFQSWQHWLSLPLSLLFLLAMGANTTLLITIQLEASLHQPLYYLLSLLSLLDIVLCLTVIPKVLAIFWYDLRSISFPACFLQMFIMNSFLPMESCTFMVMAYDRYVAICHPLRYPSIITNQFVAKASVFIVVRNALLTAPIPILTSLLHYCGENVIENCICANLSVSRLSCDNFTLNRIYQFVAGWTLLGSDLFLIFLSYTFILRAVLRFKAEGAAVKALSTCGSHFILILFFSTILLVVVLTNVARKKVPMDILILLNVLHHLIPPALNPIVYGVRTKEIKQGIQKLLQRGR
# In short: as §1
# OR56A4 (Homo sapiens) = molecular target: T3, OR56A4 (Homo sapiens) (UniProt Q8NGH8)
# T3 sequence (whole entry): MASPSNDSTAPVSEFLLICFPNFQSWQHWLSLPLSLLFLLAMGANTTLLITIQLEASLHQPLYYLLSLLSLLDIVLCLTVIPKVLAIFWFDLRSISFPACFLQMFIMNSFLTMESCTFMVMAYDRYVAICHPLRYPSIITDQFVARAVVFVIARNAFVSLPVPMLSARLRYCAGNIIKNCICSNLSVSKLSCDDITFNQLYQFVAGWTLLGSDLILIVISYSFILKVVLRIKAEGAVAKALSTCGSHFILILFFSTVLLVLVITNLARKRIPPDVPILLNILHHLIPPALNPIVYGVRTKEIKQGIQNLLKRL
# In short: as §1
# OR56A5 (Homo sapiens) = molecular target: T4, OR56A5 (Homo sapiens) (UniProt P0C7T3)
# T4 sequence (whole entry): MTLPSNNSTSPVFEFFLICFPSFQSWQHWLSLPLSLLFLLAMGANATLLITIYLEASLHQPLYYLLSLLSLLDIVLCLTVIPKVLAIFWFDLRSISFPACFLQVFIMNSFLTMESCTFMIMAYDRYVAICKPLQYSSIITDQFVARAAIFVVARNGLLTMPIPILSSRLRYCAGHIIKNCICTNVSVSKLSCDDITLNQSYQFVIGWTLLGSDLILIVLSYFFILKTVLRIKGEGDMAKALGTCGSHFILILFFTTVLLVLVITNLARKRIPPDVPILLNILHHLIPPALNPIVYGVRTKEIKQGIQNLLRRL
# In short: as §1
# OR5A1 [1] = tested on: T5, OR5A1
# T5 sequence (whole entry): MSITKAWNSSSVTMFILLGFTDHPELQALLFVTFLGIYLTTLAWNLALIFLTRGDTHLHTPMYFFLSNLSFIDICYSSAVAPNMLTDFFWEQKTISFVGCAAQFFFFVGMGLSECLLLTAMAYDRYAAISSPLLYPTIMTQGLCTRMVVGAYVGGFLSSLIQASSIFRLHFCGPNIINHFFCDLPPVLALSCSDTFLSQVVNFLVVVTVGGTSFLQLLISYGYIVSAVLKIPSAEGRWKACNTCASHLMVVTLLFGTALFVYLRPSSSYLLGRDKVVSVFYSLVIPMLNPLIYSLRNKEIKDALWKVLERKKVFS
# In short: as §1
# OR5A1 [2] = tested on: T6, OR5A1; remark: listed apart in the source
# T6 sequence (whole entry): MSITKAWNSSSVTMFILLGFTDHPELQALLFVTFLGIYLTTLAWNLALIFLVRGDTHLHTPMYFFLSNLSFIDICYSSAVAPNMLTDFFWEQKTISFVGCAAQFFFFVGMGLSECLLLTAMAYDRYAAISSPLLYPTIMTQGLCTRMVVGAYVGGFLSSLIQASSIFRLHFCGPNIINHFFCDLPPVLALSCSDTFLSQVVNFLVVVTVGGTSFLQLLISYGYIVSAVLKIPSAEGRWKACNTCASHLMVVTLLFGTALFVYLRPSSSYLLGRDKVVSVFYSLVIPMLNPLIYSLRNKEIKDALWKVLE
# In short: as §1
# OR5A1 [3] = tested on: T7, OR5A1; remark: listed apart in the source
# T7 sequence (whole entry): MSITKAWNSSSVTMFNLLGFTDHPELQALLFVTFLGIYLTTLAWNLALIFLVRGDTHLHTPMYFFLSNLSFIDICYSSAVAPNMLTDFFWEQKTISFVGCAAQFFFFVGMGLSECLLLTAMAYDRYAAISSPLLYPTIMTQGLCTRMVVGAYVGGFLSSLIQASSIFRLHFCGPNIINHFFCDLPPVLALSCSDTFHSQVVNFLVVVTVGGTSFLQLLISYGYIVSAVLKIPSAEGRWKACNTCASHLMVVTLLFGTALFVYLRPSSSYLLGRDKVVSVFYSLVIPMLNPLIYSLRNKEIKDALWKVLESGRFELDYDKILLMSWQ
# In short: as §1
# OR5A2 (Homo sapiens) = molecular target: T8, OR5A2 (Homo sapiens) (UniProt Q8NGI9)
# T8 sequence (whole entry): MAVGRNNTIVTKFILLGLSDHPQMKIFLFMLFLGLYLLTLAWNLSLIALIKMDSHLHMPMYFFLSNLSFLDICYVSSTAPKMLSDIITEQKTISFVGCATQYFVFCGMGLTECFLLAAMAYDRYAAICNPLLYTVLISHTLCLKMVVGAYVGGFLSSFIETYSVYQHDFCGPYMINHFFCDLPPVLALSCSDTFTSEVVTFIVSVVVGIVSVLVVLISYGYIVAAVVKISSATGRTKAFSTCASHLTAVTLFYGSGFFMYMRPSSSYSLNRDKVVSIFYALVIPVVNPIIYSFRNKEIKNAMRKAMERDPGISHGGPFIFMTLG
# In short: as §1
# OR5AK2 (Homo sapiens) = molecular target: T9, OR5AK2 (Homo sapiens) (UniProt Q8NH90)
# T9 sequence (whole entry): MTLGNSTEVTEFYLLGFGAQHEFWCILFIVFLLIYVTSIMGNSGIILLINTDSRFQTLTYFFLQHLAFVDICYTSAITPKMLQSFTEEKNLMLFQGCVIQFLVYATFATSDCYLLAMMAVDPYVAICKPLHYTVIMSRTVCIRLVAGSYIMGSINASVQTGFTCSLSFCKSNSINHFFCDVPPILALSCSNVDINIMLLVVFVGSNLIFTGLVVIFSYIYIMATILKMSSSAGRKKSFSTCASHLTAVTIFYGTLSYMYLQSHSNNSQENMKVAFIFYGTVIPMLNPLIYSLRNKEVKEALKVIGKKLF
# In short: as §1
# OR5AC2 (Homo sapiens) = molecular target: T10, OR5AC2 (Homo sapiens) (UniProt Q9NZP5)
# T10 sequence (whole entry): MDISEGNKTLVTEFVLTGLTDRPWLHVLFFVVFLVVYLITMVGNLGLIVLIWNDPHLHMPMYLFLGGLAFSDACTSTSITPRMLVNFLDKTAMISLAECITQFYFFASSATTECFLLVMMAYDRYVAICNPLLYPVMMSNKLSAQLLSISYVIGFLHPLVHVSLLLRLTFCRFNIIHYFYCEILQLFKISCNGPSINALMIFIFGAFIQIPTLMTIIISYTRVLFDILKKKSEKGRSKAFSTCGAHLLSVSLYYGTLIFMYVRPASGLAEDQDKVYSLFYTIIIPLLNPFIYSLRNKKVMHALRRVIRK
# In short: as §1
SMILES,odorant receptor agonist call (OR52N5 (Homo sapiens)),odorant receptor agonist call (OR56A1 (Homo sapiens)),odorant receptor agonist call (OR56A4 (Homo sapiens)),odorant receptor agonist call (OR56A5 (Homo sapiens)),odorant receptor agonist call (OR5A1 [1]),odorant receptor agonist call (OR5A1 [2]),odorant receptor agonist call (OR5A1 [3]),odorant receptor agonist call (OR5A2 (Homo sapiens)),odorant receptor agonist call (OR5AK2 (Homo sapiens)),odorant receptor agonist call (OR5AC2 (Homo sapiens))
CCCCCCCCOC(C)=O,inactive,inactive,inactive,active,inactive,inactive,inactive,inactive,inactive,–
CC1COCc2cc3c(cc21)C(C)(C)C(C)C3(C)C (stereo not given),inactive,active,inactive,active,active,inactive,inactive,inactive,active,–
CC(C)=CCCC(C)=CC=O,active,inactive,inactive,inactive,inactive,inactive,inactive,inactive,inactive,–
CCCCCCCCCCC=O,active,inactive,active,inactive,inactive,inactive,inactive,inactive,inactive,–
COC(=O)c1ccccc1O,inactive,inactive,inactive,inactive,inactive,inactive,inactive,inactive,inactive,–
O=C1CCCCCCCCCCCCCCO1,inactive,inactive,inactive,inactive,inactive,inactive,inactive,inactive,inactive,inactive
